The values below come from PMC11163730.

Amino acid sequences for entries named in this document (tags omitted).
UniProt P50613: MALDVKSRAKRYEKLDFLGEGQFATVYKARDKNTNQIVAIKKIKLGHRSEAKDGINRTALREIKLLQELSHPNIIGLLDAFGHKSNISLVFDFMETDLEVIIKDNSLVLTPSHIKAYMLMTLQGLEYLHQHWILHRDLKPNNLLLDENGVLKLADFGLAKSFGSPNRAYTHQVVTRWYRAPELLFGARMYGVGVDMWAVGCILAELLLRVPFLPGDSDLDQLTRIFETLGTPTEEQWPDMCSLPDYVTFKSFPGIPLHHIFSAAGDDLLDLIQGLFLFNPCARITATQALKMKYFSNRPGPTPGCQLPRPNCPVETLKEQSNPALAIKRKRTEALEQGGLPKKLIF
UniProt P50750: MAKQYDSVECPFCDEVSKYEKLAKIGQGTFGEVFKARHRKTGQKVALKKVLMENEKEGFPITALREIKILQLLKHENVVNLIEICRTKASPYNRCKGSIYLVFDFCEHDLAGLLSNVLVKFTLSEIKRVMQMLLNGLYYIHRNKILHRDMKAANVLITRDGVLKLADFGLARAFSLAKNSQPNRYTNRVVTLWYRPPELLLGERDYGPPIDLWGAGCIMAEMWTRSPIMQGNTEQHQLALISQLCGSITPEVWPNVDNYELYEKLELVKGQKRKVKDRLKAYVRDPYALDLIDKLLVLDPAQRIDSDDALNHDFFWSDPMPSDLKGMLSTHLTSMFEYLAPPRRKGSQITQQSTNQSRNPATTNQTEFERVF
UniProt P04792: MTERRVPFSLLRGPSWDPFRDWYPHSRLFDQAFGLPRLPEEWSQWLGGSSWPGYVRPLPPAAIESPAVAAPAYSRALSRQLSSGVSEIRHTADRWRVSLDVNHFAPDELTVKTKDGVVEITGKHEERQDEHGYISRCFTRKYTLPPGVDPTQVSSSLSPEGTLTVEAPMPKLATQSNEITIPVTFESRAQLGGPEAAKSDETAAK
UniProt Q92598: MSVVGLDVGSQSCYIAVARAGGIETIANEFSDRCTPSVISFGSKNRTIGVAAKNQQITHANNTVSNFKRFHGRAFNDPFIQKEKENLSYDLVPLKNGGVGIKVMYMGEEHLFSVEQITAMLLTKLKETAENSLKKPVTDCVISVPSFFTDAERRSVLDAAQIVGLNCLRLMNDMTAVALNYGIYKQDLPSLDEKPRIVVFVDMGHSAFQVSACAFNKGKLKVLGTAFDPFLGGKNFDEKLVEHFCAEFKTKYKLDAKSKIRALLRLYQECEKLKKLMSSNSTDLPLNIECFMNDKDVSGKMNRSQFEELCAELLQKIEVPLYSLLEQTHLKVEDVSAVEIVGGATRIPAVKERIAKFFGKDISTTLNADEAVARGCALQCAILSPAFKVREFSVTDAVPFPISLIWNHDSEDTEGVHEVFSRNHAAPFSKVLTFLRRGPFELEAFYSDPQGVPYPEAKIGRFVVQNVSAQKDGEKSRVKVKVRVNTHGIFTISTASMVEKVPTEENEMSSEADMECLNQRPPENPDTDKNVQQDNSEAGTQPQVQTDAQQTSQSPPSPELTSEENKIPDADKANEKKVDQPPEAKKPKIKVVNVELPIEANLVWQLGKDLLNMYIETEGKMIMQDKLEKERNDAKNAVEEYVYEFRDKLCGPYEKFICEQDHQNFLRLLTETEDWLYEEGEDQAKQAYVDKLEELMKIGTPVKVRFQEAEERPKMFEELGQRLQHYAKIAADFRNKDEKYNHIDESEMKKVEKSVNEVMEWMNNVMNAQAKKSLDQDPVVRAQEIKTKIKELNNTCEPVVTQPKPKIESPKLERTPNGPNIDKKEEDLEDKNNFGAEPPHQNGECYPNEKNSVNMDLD
UniProt P19525: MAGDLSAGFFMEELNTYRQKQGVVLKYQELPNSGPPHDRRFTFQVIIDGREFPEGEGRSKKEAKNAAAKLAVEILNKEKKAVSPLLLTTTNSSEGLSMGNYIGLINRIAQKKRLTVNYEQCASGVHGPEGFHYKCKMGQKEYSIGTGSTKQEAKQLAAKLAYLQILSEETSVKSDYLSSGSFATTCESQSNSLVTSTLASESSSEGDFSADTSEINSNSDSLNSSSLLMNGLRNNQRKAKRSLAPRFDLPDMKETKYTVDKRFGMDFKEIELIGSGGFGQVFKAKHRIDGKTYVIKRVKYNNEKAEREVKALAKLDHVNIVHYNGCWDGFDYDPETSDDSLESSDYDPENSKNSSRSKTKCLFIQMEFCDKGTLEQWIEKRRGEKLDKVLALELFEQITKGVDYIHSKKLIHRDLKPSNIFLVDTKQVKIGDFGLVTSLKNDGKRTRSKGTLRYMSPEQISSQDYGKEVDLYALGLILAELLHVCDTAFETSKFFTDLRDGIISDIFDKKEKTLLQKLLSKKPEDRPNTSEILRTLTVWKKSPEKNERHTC

Test [1] deals with Cyclin-dependent kinase 7 (human (endogenous in MDA-MB-435)) (UniProt P50613). Kind of test: co-IP; endogenous proteins of MDA-MB-435 cells; whole cell lysates or cytosolic and nuclear fractions in RIPA buffer (5 mM Tris-HCl pH 7.4, 150 mM NaCl, 1% NP-40, 1 mM EDTA, 1% sodium deoxycholate); 1 mg protein with specific primary antibodies and Protein G magnetic beads, Western blot; cells treated with CPYPP (10 uM, 6-24 h), CsA, curcumin or ML346, with or without THZ1, LY2857785 or PKRi pretreatment; which protein was precipitated not given. (In western blotting, separated proteins are transferred to a membrane and probed.)

For test [2], the target named is Cyclin-dependent kinase 9 (human (endogenous in MDA-MB-435)) (UniProt P50750). The description is as above.

These are yes or no findings as the source states them, for the method shown. In cells and extracts the contact can be indirect. Some results given as binding are weak or reduced against the parent protein; the word gives no strength.

With HSP27 (from UniProt P04792 1-205), the binding result in test [1] and in test [2] was “binds” throughout.

Consider HSP105 (from UniProt Q92598 1-858), for which the binding entry in test [1] and in test [2] was “binds” in each case.

Take “Protein kinase R (from UniProt P19525 1-551) (enzyme)”: the binding result in test [1] and in test [2] was “binds” each time.
